# Experimental data reported in PubChem BioAssay AID1347076 (National Center for Advancing Translational Sciences (NCATS), 2019).
# Hit rate of the full screen: of about 400,000 compounds, about 13,000 (3.2%) were called active. This list was built around the results that the source calls inconclusive (neither active nor inactive); the mix of calls is not that of the screen. Calls come from the whole dose curve; as a rule, active = well fitted cell-killing curve with a large enough effect; inconclusive = small, poorly fitted or top-dose-only effect, or effect the other way; inactive = flat fitted curve, though single readings scatter. Potencies beside an inconclusive call are fits to weak or partial responses and may not hold up.
# Experiment: qHTS assay for MDR1-selective chemotherapeutics: Primary screen using the drug-selected MDR subline cells KB-V1; note: nearly all actives have a fitted effect of over 60% in size
# Details: KB-V1 MDR cells viability, CellTiter-Glo, 72 h; activity change, negative = cytotoxicity: at 46.1 µM (top of the series)
# Method in brief: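 Cytotoxicity toward P-gp-expressing KB-V1 cells was determined as loss of CellTiter-Glo luminescence after 72 h at 37 degrees C. Compounds were tested in quantitative HTS format across a concentration range, with curves fitted to normalized data.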
# % is set by controls: 0 for no effect and ±100 for the full control effect; potency is the fitted concentration of half-maximal effect.
Compound,Potency,"activity change, negative = cytotoxicity"
Nc1[nH]c(=O)[nH]c(=O)c1N=Cc1ccccc1,"inconclusive: 29.1 µM [cytotoxic, single point]",–
Cc1ccc(NC(=O)CSc2nc(-c3cccs3)cc(C(F)(F)F)n2)cc1C,"inconclusive: 2.31 µM [cytotoxic, partial curve, poor fit]",–
Cc1cccc(OCC(=O)NNc2c3ccccc3nc3ccccc23)c1,active: 13 µM,–
CCOC(=O)[C@H]1[C@H]2COc3ccc(Br)cc3[C@@H]2N2C(=O)c3cc(Br)ccc3NC(=O)[C@@]12C,–,inactive: -29.3%
CCN(CC)c1ccc(/C=N/NC(=O)Cc2cccs2)c(O)c1,"inconclusive: 10.3 µM [cytotoxic, partial curve]",–
O=[N+]([O-])c1ccc(N2CCNCC2)cc1NCc1cccnc1,"inconclusive: 23.1 µM [cytotoxic, single point]",–
CC(=O)c1ccc(OCc2ccccc2)c(C)c1O,"inconclusive: 23.1 µM [cytotoxic, single point]",–
Cc1cccc(NC(=O)c2oc3ccc(S(=O)(=O)N4CCOCC4)cc3c2C)c1C,"inconclusive: 16.4 µM [cytotoxic, single point]",–
CCC(C)(C)n1nnnc1C(c1cccs1)N1CCCCC1 (stereo not drawn),–,inactive: -9.42%
CC1(C)CC(=O)C(CS(=O)(=O)c2ccccc2)=C(O)C1,"inconclusive: 29.1 µM [rising, single point]",–
CCOC(=O)c1c(NC(=O)CSc2nnnn2-c2ccccc2OCC)sc2c1CC(C)(C)NC2(C)C,"inconclusive: 23.1 µM [cytotoxic, single point]",–
COc1ccc(S(=O)(=O)N(CCc2ccccc2)CC(=O)Nc2cc(C)ccc2C)cc1,"inconclusive: 20.6 µM [cytotoxic, partial curve]",–
O=C(CN1C(=O)/C(=C/c2ccccc2F)Sc2ccccc21)NCc1cccnc1,"inconclusive: 29.1 µM [cytotoxic, partial curve, poor fit]",–
CCOC(=O)n1c(=O)n(Cc2ccccc2)c2ccccc21,"inconclusive: 16.4 µM [cytotoxic, partial curve, poor fit]",–
CCOC(=O)C1=C(O)/C(=C/c2cccc(OC)c2O)N=C1C,"inconclusive: 18.4 µM [rising, single point]",–
COc1cc(OC)cc(C(=O)OCC(=O)c2ccc(S(=O)(=O)N3CCCCC3)cc2)c1,"inconclusive: 18.4 µM [cytotoxic, single point]",–
CC1(C)Cc2c(C#N)c(NCCN3CCOCC3)nc(-c3ccccc3)c2CO1,–,inactive: -21.3%
COc1ccc(OC)c(NP2(=O)OCC(C)([N+](=O)[O-])CO2)c1 (stereo not drawn),–,inactive: -16.3%
O=C(CN1CCOCC1)NNC(=S)Nc1ccc(Cl)cc1,–,inactive: 17.4%
COCCN(C(=O)CSc1nnc(-c2ccccc2OC)o1)c1c(N)n(CC(C)C)c(=O)[nH]c1=O,–,inactive: 7.72%
Cc1cccc(Nc2ccc(C(=O)O)cc2[N+](=O)[O-])c1C,–,inactive: 0%
CCOC(=O)C1(CCOc2ccccc2)CCN(Cc2cccc(OC)c2O)CC1,"inconclusive: 2.31 µM [cytotoxic, partial curve, poor fit]",–

Compound,Potency,"activity change, negative = cytotoxicity"
O=C1C=C(/C=C/c2ccccc2)C[C@@H](c2ccc(F)cc2)C1,–,inactive: 5.2%
CCCNC(=O)c1cc2c(c(-c3cccc(-c4ccc(F)cc4)c3)n1)[C@@H](CCO)N(S(=O)C(C)(C)C)C2 (stereo partly drawn),"inconclusive: 29.1 µM [cytotoxic, single point]",–
Cc1cccc(/C(N)=N/OC(=O)COc2ccc(Cl)cc2)c1,"inconclusive: 0.517 µM [rising, full curve, poor fit]",–
O=C(COc1ccc(Cl)cc1Br)Nc1ccncc1,"inconclusive: 18.4 µM [cytotoxic, single point]",–
Cc1nc(N2CCN(c3ccccn3)CC2)c2c(C)c(C(=O)Nc3c(F)cc(F)cc3Br)sc2n1,"inconclusive: 32.6 µM [cytotoxic, single point]",–
CN1C(=O)Cn2c1nc1ccccc12,–,inactive: 22.3%
COc1ccc(Cl)cc1C(=O)N1CCN=C1SC,"inconclusive: 29.1 µM [rising, single point]",–
O=C(CN(C(=O)CCC(=O)Nc1ccccn1)c1ccc(F)cc1)NCc1ccc(F)cc1,"inconclusive: 29.1 µM [cytotoxic, single point]",–
CCCCCCCCn1c(N2CCN(c3cccc(Cl)c3)CC2)nc2c1c(=O)[nH]c(=O)n2C,active: 13 µM,–
COc1ccc(CNC(=O)c2ccc3c(c2)NC(=O)C(CS(=O)(=O)Cc2ccccc2Cl)N3)cc1 (stereo not drawn),"inconclusive: 10.3 µM [rising, single point]",–
O=C(NCCc1cccnc1)c1cc(COc2ccc(F)cc2Cl)on1,"inconclusive: 8.2 µM [cytotoxic, partial curve]",–
O=C(Cn1nnc(-c2ccc(OCc3ccccc3F)cc2)n1)N1CCOCC1,"inconclusive: 8.2 µM [cytotoxic, partial curve]",–
CCOC(=O)c1cccc(NS(=O)(=O)c2c(C)nc3sc(C)cn3c2=O)c1,"inconclusive: 23.1 µM [cytotoxic, single point]",–
COc1cccc(NC(=O)CN(C)C(=O)c2ccc(NC3CC3)c([N+](=O)[O-])c2)c1,active: 7.31 µM,–
Nc1nonc1-n1nnc(C(=O)N/N=C/c2ccncc2)c1-c1cccs1,–,inconclusive: 35.8%
C/C(=N\NC(=O)c1cc2c(s1)CCC(C)C2)c1ccncc1 (stereo not drawn),"inconclusive: 8.2 µM [cytotoxic, partial curve]",–
Cn1c(CC(=O)Nc2ccccc2C(F)(F)F)c(Sc2ccccc2)c2ccccc21,"inconclusive: 9.2 µM [cytotoxic, partial curve]",–
CCOc1ccc(S(=O)(=O)n2cnc3cc(C)c(C)cc32)cc1,"inconclusive: 20.6 µM [cytotoxic, partial curve]",–
O=C(Nn1cc(C(=O)Nc2ccccc2F)c2ccccc2c1=O)c1cnccn1,"inconclusive: 2.59 µM [cytotoxic, full curve]",–
Cc1cccc(Cn2c(SCc3ccc(C(=O)NCCc4ccccc4)cc3)nc3cccnc32)c1,active: 18.4 µM,–
CC(=O)Nc1ccc(S(=O)(=O)N2CCN(c3ccccc3)CC2)cc1,"inconclusive: 18.4 µM [cytotoxic, single point]",–

# Among those listed so far, these contain a CF3 group.
Compound,Potency,"activity change, negative = cytotoxicity"
Cc1ccc(NC(=O)CSc2nc(-c3cccs3)cc(C(F)(F)F)n2)cc1C,"inconclusive: 2.31 µM [cytotoxic, partial curve, poor fit]",–
Cn1c(CC(=O)Nc2ccccc2C(F)(F)F)c(Sc2ccccc2)c2ccccc21,"inconclusive: 9.2 µM [cytotoxic, partial curve]",–
